Measurements: the supplement of paper PMC10849652
This is one part of the list. Residues, ends and D or L forms follow the SMILES beside them. *: point of attachment. Cbz = O=C(OCc1ccccc1)*

Chains of the proteins cited; added tags and fusions are not shown. Lines headed by an entry give the natural chain unless they say otherwise; changes in a name come on top.
UniProt Q96S66: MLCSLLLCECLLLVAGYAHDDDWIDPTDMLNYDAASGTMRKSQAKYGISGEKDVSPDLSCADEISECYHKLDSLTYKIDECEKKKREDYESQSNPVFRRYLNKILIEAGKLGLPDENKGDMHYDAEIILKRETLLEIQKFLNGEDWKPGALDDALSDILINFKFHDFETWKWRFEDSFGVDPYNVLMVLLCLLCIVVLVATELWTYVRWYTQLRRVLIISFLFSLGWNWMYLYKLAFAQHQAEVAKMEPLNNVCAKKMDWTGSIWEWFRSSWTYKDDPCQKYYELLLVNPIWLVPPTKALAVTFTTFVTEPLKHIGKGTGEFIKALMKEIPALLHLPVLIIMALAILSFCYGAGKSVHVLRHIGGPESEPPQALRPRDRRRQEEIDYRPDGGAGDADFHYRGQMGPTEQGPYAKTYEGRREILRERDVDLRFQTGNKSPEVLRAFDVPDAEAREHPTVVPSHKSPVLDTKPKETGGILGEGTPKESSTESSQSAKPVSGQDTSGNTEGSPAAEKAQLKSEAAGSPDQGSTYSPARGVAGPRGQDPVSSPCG
UniProt O14967: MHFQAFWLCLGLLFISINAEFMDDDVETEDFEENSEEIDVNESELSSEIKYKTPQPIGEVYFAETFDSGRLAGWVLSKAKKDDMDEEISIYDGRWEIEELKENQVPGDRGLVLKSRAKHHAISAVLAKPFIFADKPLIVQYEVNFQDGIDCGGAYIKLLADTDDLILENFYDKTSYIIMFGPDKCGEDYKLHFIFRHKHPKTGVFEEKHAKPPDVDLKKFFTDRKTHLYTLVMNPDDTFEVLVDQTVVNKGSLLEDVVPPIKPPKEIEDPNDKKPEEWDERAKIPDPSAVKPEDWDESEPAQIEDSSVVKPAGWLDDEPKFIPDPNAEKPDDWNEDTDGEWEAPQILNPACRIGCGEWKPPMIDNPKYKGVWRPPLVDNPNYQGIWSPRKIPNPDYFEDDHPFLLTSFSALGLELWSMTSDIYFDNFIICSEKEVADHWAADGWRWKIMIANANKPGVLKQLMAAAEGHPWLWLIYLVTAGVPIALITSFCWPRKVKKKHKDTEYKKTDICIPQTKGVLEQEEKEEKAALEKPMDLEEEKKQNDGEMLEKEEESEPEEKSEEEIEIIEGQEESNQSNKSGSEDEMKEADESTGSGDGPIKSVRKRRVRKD
UniProt Q00610: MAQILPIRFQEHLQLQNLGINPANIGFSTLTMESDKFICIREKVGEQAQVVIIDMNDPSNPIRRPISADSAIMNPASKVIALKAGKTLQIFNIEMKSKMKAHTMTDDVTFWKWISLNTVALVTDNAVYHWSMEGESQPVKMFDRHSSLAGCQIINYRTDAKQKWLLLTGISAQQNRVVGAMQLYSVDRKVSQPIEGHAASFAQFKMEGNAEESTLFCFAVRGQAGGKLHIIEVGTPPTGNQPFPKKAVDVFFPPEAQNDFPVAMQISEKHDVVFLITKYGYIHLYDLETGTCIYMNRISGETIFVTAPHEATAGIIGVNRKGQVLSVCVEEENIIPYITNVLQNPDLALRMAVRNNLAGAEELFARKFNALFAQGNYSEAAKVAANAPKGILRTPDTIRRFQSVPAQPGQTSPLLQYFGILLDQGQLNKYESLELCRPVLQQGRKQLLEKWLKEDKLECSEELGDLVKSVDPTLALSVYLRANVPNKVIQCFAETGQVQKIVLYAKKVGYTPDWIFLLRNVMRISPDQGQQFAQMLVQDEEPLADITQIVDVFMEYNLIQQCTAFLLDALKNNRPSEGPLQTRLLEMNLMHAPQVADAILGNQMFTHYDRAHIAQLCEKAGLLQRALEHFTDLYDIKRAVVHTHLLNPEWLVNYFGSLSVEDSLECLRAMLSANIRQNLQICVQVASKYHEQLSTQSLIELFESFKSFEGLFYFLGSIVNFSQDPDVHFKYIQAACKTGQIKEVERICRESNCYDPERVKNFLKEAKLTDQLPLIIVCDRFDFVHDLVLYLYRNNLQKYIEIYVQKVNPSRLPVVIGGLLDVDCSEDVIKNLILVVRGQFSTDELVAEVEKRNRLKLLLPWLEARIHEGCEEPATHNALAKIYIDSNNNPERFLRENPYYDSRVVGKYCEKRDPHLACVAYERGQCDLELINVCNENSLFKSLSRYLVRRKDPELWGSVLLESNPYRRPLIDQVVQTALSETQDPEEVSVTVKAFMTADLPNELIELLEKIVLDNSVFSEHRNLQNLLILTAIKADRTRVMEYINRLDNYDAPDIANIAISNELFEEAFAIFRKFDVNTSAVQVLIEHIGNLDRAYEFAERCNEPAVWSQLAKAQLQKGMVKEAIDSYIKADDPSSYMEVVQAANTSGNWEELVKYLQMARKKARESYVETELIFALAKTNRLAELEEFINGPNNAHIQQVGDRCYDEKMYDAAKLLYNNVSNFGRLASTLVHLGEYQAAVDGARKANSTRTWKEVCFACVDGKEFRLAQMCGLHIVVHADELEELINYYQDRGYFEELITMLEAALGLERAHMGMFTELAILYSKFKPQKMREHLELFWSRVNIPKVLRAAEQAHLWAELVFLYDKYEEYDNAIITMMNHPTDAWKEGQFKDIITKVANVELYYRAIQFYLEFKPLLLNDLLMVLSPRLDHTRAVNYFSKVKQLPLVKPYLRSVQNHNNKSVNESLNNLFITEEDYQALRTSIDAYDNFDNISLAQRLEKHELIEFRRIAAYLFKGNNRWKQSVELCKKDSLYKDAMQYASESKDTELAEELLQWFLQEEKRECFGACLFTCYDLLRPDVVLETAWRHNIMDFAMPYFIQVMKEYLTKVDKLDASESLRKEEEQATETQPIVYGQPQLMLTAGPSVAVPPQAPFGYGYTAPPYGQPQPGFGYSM
UniProt O15247: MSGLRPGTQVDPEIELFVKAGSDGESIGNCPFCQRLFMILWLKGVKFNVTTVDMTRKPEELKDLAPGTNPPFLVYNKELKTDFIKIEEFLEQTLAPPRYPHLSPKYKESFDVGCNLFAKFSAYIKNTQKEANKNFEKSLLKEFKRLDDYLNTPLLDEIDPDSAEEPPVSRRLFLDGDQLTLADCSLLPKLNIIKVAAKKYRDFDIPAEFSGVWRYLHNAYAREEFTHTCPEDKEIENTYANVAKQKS
UniProt P09497: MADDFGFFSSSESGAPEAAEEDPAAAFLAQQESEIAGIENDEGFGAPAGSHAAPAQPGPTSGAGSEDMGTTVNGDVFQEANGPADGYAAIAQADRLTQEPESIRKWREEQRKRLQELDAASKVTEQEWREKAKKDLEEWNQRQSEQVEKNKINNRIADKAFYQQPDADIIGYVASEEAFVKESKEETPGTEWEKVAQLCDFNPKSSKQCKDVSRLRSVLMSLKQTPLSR
UniProt Q9NY35: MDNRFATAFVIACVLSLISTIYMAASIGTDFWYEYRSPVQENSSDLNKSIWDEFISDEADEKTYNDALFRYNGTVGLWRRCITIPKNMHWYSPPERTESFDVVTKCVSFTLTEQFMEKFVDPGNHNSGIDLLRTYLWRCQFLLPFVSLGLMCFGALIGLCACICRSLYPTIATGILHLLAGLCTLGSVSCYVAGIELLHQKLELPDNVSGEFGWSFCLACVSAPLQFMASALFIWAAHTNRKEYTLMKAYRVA
UniProt Q14677: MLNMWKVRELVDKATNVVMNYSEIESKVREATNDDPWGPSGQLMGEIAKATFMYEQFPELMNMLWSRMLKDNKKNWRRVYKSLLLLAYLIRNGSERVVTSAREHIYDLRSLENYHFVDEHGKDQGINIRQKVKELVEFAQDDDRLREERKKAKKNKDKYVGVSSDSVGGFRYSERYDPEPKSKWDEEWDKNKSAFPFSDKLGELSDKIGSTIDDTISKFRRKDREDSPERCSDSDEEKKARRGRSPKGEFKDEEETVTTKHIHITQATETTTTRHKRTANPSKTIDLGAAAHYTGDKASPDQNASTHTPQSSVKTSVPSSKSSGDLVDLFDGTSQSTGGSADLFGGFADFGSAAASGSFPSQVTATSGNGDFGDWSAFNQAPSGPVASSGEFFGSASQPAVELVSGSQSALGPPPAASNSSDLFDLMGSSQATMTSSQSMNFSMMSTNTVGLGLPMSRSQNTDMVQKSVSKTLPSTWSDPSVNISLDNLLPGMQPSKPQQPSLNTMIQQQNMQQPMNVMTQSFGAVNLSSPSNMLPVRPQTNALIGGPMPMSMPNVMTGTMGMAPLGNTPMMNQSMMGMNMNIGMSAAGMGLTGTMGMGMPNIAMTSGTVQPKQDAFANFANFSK
UniProt Q8N3C7: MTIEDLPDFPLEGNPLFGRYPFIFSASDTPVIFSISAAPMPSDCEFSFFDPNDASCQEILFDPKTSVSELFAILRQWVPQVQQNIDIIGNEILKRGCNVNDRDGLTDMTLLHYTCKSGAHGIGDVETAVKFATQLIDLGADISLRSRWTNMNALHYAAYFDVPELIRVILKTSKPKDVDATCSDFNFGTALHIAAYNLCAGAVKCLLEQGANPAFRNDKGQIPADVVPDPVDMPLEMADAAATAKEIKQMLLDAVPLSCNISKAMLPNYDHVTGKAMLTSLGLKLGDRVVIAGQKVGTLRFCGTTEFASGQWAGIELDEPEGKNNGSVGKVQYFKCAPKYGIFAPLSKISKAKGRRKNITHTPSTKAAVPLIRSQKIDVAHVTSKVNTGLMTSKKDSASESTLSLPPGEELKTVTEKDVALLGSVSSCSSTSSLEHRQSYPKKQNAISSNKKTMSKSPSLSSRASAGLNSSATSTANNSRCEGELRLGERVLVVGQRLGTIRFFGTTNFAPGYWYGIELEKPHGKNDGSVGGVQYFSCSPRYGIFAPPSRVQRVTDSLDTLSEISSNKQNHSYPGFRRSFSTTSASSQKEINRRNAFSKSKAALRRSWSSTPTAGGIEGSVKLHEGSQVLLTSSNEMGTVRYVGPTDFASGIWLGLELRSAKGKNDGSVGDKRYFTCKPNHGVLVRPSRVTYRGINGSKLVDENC
UniProt Q14746: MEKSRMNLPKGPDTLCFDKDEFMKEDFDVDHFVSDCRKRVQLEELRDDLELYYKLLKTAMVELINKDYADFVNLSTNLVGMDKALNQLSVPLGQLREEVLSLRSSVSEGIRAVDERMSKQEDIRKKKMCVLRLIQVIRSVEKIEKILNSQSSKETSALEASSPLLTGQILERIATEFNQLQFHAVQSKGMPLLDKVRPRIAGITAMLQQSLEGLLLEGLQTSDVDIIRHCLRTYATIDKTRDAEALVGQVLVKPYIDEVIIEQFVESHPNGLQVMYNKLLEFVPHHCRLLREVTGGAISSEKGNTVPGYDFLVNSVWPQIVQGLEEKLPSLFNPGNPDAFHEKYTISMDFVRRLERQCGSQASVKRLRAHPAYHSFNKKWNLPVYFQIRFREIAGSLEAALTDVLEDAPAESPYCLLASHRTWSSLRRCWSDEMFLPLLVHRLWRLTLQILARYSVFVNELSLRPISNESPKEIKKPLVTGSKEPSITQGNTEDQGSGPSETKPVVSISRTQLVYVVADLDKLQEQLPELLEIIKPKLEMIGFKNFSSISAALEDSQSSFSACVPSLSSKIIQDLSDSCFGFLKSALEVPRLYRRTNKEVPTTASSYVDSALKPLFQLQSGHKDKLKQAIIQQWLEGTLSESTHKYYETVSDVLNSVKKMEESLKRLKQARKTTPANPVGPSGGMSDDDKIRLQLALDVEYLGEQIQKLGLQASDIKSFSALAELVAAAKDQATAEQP
UniProt Q5EBM0: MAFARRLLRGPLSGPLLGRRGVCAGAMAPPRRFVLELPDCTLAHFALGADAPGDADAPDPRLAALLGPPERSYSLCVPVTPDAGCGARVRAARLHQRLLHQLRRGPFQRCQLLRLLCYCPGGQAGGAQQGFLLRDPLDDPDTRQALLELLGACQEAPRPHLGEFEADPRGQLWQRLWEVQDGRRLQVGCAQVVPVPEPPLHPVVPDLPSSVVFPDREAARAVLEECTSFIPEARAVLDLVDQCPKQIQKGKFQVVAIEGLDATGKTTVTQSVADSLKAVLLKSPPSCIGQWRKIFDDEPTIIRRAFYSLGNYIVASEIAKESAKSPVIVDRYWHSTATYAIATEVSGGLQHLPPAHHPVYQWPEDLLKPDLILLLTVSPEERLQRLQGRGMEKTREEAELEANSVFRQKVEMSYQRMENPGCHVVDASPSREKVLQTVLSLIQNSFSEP
UniProt Q9NRB3: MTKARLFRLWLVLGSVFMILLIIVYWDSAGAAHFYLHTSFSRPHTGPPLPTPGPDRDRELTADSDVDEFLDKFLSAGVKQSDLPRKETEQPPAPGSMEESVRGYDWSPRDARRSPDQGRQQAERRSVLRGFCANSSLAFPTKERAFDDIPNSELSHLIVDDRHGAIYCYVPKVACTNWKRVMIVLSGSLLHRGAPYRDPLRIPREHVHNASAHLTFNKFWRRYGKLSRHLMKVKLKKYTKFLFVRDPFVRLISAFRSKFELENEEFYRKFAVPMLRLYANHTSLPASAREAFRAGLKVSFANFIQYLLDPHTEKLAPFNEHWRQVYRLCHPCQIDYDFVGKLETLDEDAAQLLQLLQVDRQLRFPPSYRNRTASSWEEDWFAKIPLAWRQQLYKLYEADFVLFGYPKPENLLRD

Legend:
Experiment in all cases: log2 fold change, soluble protein after heating vs DMSO (PISA); higher = thermal stabilisation; K562 cells, 10 uM, 30 min; active = over 0.2 and 3.5 SD of the protein, either way, in both replicates (recomputed)
erlotinib = compound: C#Cc1cccc(Nc2ncnc3cc(OCCOC)c(OCCOC)cc23)c1 [erlotinib]
Outline: (§1)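 Soluble protein was defined as the supernatant after 21,000xg for 90 min. It came from K562 cells at 2×10^6 cells/mL given 10 μM compound for 30 min, heated in aliquots for 3 min across 48°C-58°C, pooled, and extracted in PBS with 0.5% NP-40 at 4°C, and was quantified by TMTpro 16plex LC-MS/MS with equalised channel sums. Thermal stability against control samples, from duplicates, is reported as log2 fold change.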

[1] = compound: C/C(=N\NC(=O)C1=CC(=CC=C1)S(=O)(=O)N2CCOCC2)/C3=C(C=CC(=C3)Cl)O
Outline: as §1

[2] = compound: C1=CC(=C(C=C1Cl)C2=NC3=NC=CN=C3C(=N2)NC4=CC=NC=C4)F
Outline: as §1

[3] = compound: C1=CC(=CC=C1C2=NC3=C(N2)C=C(C=C3)C(=O)N)OC4=CC=C(C=C4)Cl
Outline: as §1

[4] = compound: C1=CC2=C(C=CC(=C2)/C=C\3/C(=O)NC(=NCC4=CC=CS4)S3)N=C1
Outline: as §1

[5] = compound: C1=CC2=NC=CN=C2C=C1/C=C/3\C(=O)NC(=O)S3
Outline: as §1

[6] = compound: C1=CC=C(C=C1)C2=NC(=C(N2)C3=CC=NC=C3)C4=CC(=C(C=C4)Cl)O
Outline: as §1

[7] = compound: C1=CC=C2C(=C1)C3=NNC4=CC=CC(=C43)C2=O
Outline: as §1

[8] = compound: C1CCN(C1)C(=O)NC2=CC=CC(=C2)NC3=NC=C(C(=N3)NCCC4=CN=CN4)Br
Outline: as §1

[9] = compound: C1CN(CCC1(CC2=CC=C(C=C2)Cl)N)C3=NC=NC4=C3C=CN4
Outline: as §1

ibrutinib = compound: C=CC(=O)N1CCC[C@@H](n2nc(-c3ccc(Oc4ccccc4)cc3)c3c(N)ncnc32)C1 [ibrutinib]
Outline: as §1

[10] = compound: CC(=O)c1cnc2ccc(-c3cc(Cl)c(O)c(Cl)c3)nc2c1N[C@H]1CC[C@H](CN(C)C)CC1
Outline: as §1

ralimetinib = compound: CC(C)(C)Cn1c(N)nc2ccc(-c3[nH]c(C(C)(C)C)nc3-c3ccc(F)cc3)nc21 [ralimetinib]
Outline: as §1

[11] = compound: CC(C)(O)CC(=O)NCCn1ccc2ncnc(Nc3ccc(Oc4cccc(C(F)(F)F)c4)c(Cl)c3)c21
Outline: as §1

[12] = compound: CC(C)C1=C2N=C(C=C(N2N=C1)NCC3=CC=CC=C3)NCCCCCCN
Outline: as §1

[13] = compound: CC(C)C[C@@H](C=O)NC(=O)[C@H](CC(C)C)NC(=O)[C@H](CC(C)C)NC(=O)OCc1ccccc1
Outline: as §1

[14] = compound: CC1=C(C(CC(=O)N1)C2=CC=C(C=C2)C(F)(F)F)C(=O)NC3=C(C=C4C(=C3)C=NN4)F
Outline: as §1

[15] = compound: CC1=C(C2=C(C=C1)C(=O)C3=CC=CC=C3N2CCCN)C
Outline: as §1

IRAK-1-4 Inhibitor I = compound: C1COCCN1CCN2C3=CC=CC=C3N=C2NC(=O)C4=CC(=CC=C4)[N+](=O)[O-] [IRAK-1-4 Inhibitor I]
Outline: as §1

pinometostat = compound: CC(C)N(C[C@H]1O[C@@H](n2cnc3c(N)ncnc32)[C@H](O)[C@@H]1O)[C@H]1C[C@@H](CCc2nc3cc(C(C)(C)C)ccc3[nH]2)C1 [pinometostat]
Outline: as §1

Measured: log2 fold change

COL18A1 (UniProt P39060)
inactive: erlotinib -0.156 | [1] 0.01 | [2] -0.131 | [3] 0.129 | [4] -0.189 | [5] 0.039 | [6] -0.075 | [7] -0.021 | [8] -0.181 | [9] 0.017 | ibrutinib 0.076 | [10] -0.036 | ralimetinib -0.216 | [11] 0.017 | [12] -0.053 | [13] 0.197 | [14] 0.036 | [15] -0.007

CLEC16A (UniProt Q2KHT3)
inactive: erlotinib -0.023 | [1] 0.018 | [2] 0.048 | [3] 0.003 | [4] -0.029 | [5] -0.001 | [6] -0.004 | [7] -0.015 | [8] 0.038 | [9] 0.015 | IRAK-1-4 Inhibitor I 0.029 | [10] 0.012 | ralimetinib -0.069 | [11] -0.016 | [12] 0.057 | [13] 0.023 | pinometostat 0.016 | [14] 0.065 | [15] -0.021

CLCC1 (UniProt Q96S66)
inactive: erlotinib 0.02 | [1] -0.003 | [2] 0 | [3] -0.003 | [4] 0.026 | [5] 0.059 | [6] -0.015 | [7] -0.045 | [8] 0.027 | [9] 0.017 | IRAK-1-4 Inhibitor I 0.016 | [10] -0.005 | ralimetinib -0.064 | [11] 0.002 | [12] 0.003 | [13] -0.041 | pinometostat -0.032 | [14] -0.016 | [15] 0.043

CLEC3B (UniProt P05452)
inactive: erlotinib -0.38 | [1] -0.07 | [2] 0.028 | [3] 0.255 | [4] 0.061 | [5] 0.129 | [6] 0 | [7] -0.2 | [8] 0.154 | [9] 0.268 | [10] 0.118 | ralimetinib -0.007 | [11] 0.279 | [12] 0.124 | [13] 0.007 | [14] 0.171 | [15] -0.286

CLGN (UniProt O14967)
inactive: erlotinib -0.021 | [1] -0.042 | [2] -0.028 | [3] 0.084 | [4] -0.183 | [5] 0.044 | [6] -0.049 | [7] -0.04 | [8] -0.012 | [9] -0.068 | IRAK-1-4 Inhibitor I -0.058 | [10] -0.023 | ralimetinib -0.08 | [11] -0.016 | [12] 0.02 | [13] 0.02 | pinometostat 0.041 | [14] 0.085 | [15] -0.16

CNOT2 (UniProt Q9NZN8)
inactive: erlotinib 0.043 | [1] 0.059 | [2] 0.009 | [3] -0.024 | [4] 0.016 | [5] 0.045 | [6] -0.031 | [7] -0.042 | [8] -0.019 | [9] -0.034 | IRAK-1-4 Inhibitor I 0.112 | ibrutinib 0.013 | [10] -0.045 | ralimetinib -0.027 | [11] -0.038 | [12] -0.112 | [13] 0.013 | pinometostat 0.05 | [15] 0.059

CHPF2 (UniProt Q9P2E5)
inactive: erlotinib 0.219 | [1] -0.015 | [2] -0.036 | [3] -0.039 | [4] -0.058 | [5] 0.009 | [6] 0.024 | [7] 0.069 | [8] -0.136 | [9] -0.057 | ibrutinib 0.013 | [10] 0.037 | ralimetinib 0.134 | [11] 0.058 | [12] -0.034 | [13] -0.015 | [14] 0.09 | [15] 0.033

CLTC (UniProt Q00610)
inactive: erlotinib 0.027 | [1] -0.08 | [2] 0.004 | [3] -0.122 | [4] 0.088 | [5] 0.004 | [6] 0.121 | [7] 0.084 | [8] 0.041 | [9] -0.099 | IRAK-1-4 Inhibitor I 0.026 | [10] 0.135 | ralimetinib 0.196 | [11] 0 | [12] -0.188 | [13] 0.036 | pinometostat 0.032 | [14] -0.103 | [15] 0.024

CLIC2 (UniProt O15247)
inactive: erlotinib 0.053 | [1] 0.062 | [2] 0.058 | [3] 0.003 | [4] 0.005 | [5] 0.012 | [6] 0.013 | [7] 0.007 | [8] -0.046 | [9] -0.059 | IRAK-1-4 Inhibitor I -0.074 | [10] -0.051 | ralimetinib -0.015 | [11] -0.112 | [12] -0.114 | [13] 0.01 | pinometostat 0.022 | [14] 0 | [15] 0.01

CLTB (UniProt P09497)
inactive: erlotinib 0.106 | [1] -0.042 | [2] 0.038 | [3] -0.05 | [4] -0.02 | [5] 0.039 | [6] 0.069 | [7] 0.028 | [8] 0.008 | [9] 0.023 | IRAK-1-4 Inhibitor I 0.053 | [10] 0.089 | ralimetinib 0.061 | [11] -0.021 | [12] 0.024 | [13] -0.067 | pinometostat -0.07 | [15] -0.007

CLIP1 isoform 1 (UniProt P30622)
inactive: erlotinib 0.008 | [1] 0.021 | [2] 0.003 | [3] 0.01 | [4] 0 | [5] 0.024 | [6] -0.028 | [7] -0.029 | [8] -0.014 | [9] 0.033 | IRAK-1-4 Inhibitor I 0.01 | [10] -0.007 | ralimetinib -0.052 | [11] 0.005 | [12] 0.07 | [13] 0.006 | pinometostat -0.03 | [14] 0.009 | [15] -0.002

CLDND1 (UniProt Q9NY35)
inactive: erlotinib 0.028 | [1] 0.027 | [2] -0.114 | [3] -0.018 | [4] -0.045 | [5] 0.081 | [6] -0.022 | [7] 0.024 | [8] -0.159 | [9] 0.036 | IRAK-1-4 Inhibitor I -0.034 | [10] -0.031 | ralimetinib 0.03 | [11] -0.025 | [12] 0.006 | [13] 0.061 | pinometostat 0.106 | [14] 0 | [15] 0.024

CLINT1 isoform 3 (UniProt Q14677)
inactive: erlotinib 0.016 | [1] -0.134 | [2] -0.097 | [3] -0.036 | [4] 0.026 | [5] 0.05 | [6] -0.03 | [7] -0.042 | [8] -0.044 | [9] 0.042 | [10] 0.135 | ralimetinib 0.139 | [11] 0.102 | [12] 0.103 | [13] 0.04 | pinometostat 0.047 | [15] 0.022

CLSPN (UniProt Q9HAW4)
inactive: erlotinib -0.09 | [1] -0.022 | [2] -0.024 | [3] 0.02 | [4] -0.035 | [5] 0.032 | [6] -0.062 | [7] -0.027 | [8] -0.083 | [9] 0.033 | IRAK-1-4 Inhibitor I 0.028 | [10] -0.04 | ralimetinib -0.033 | [11] 0.038 | [12] -0.062 | [13] 0.124 | pinometostat -0.018
active: [15] -0.541

Copied from the results shown (two entries):
CLDND1 (UniProt Q9NY35)
inactive: erlotinib 0.028 | [1] 0.027 | [2] -0.114 | [3] -0.018 | [4] -0.045 | [5] 0.081 | [6] -0.022 | [7] 0.024 | [8] -0.159 | [9] 0.036 | IRAK-1-4 Inhibitor I -0.034 | [10] -0.031 | ralimetinib 0.03 | [11] -0.025 | [12] 0.006 | [13] 0.061 | pinometostat 0.106 | [14] 0 | [15] 0.024

CLINT1 isoform 3 (UniProt Q14677)
inactive: erlotinib 0.016 | [1] -0.134 | [2] -0.097 | [3] -0.036 | [4] 0.026 | [5] 0.05 | [6] -0.03 | [7] -0.042 | [8] -0.044 | [9] 0.042 | [10] 0.135 | ralimetinib 0.139 | [11] 0.102 | [12] 0.103 | [13] 0.04 | pinometostat 0.047 | [15] 0.022

Additional entries

CLIP4 (UniProt Q8N3C7)
inactive: erlotinib 0.04 | [1] -0.038 | [2] 0.049 | [3] -0.009 | [4] -0.031 | [5] 0.04 | [6] -0.015 | [7] 0.002 | [8] -0.004 | [9] -0.009 | IRAK-1-4 Inhibitor I 0.096 | [10] -0.077 | ralimetinib -0.04 | [11] 0.079 | [12] -0.045 | [13] 0.028 | pinometostat -0.061 | [14] -0.013 | [15] 0.094

COG2 (UniProt Q14746)
inactive: erlotinib -0.082 | [1] -0.367 | [2] 0.012 | [3] -0.026 | [4] 0.478 | [6] -0.223 | [7] -0.137 | [8] 0.257 | [9] -0.065 | IRAK-1-4 Inhibitor I -0.232 | [10] -0.042 | ralimetinib 0.099 | [11] -0.317 | [12] -0.009 | [13] 0.18 | pinometostat -0.043 | [15] -0.108

CMPK2 (UniProt Q5EBM0)
inactive: erlotinib 0.059 | [1] -0.002 | [2] 0.044 | [3] 0.011 | [4] 0.066 | [5] -0.051 | [7] 0.016 | [8] -0.02 | [9] 0.008 | IRAK-1-4 Inhibitor I 0.088 | ibrutinib 0 | [10] -0.065 | [11] -0.059 | [12] -0.124 | pinometostat 0.035 | [14] 0.007 | [15] 0.038

CHST12 (UniProt Q9NRB3)
inactive: erlotinib 0.097 | [2] 0.004 | [3] 0.166 | [5] 0.115 | [6] 0.047 | [8] -0.07 | [9] 0.012 | IRAK-1-4 Inhibitor I -0.047 | ibrutinib -0.213 | ralimetinib -0.129 | [11] 0.013 | [12] 0.334 | [13] 0.271 | pinometostat 0.029 | [15] -0.069
